PubChem BioAssay AID1259254 – NCATS | 2017

- Screen: 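Gene knock-downs that lead to re-replication, shown by excess G2 DNA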 (primary screen)
- System: human HCT116 colorectal cancer cells
- Reagent: single siRNA against human genes
- Time to read-out: 3 days
- Measurement: 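Imaged Hoechst DNA stain sorts each cell into a cycle phase by DNA amount; per plate, G2 fraction set to 0% for non-targeting and 100% for GMNN siRNA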
- Direction: G2 robust z-score and G2 cells, % of GMNN control: higher = more G2 cells, more excess DNA replication
- Rule for the call: 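Active siRNAs have a G2 robust z of 5 or more median absolute deviations over the median, which in these data means about 38% or higher of GMNN control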
Shown is a random part of about 59,000 reagents. About 1,550 of all reagents (2.6%) were called active. 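G2 share is only a proxy for re-replication; each gene was hit by three separate siRNAs, and active genes were retested.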 Further read-outs or replicates are left out here. Not given: the amount of reagent.

Silencing of OR4S1 [SID160762409] resulted in: G2 robust z-score 0.0167; G2 cells, % of GMNN control 3.08; inactive. With knock-down of OR4S1 [SID160762410] the results were G2 robust z-score 3.05; G2 cells, % of GMNN control 24.5; inactive. Silencing of OR4S1 [SID160762411] came out at: G2 robust z-score 0.139; G2 cells, % of GMNN control 3.95; inactive. With knock-down of DRC2 [SID160753361] the results were G2 robust z-score -0.488; G2 cells, % of GMNN control -0.468; inactive. DRC2 [SID160753362] scored G2 robust z-score -0.323; G2 cells, % of GMNN control 0.693; inactive. For DRC2 [SID160753363], the entry reads G2 robust z-score 0.161; G2 cells, % of GMNN control 4.1; inactive.

For CALML3 [SID160735935], the values are G2 robust z-score -0.777; G2 cells, % of GMNN control -2.5; inactive. Silencing of CALML3 [SID160735946] gave: G2 robust z-score 0.866; G2 cells, % of GMNN control 9.06; inactive. For CALML3 [SID160735956], the values are G2 robust z-score -0.216; G2 cells, % of GMNN control 1.45; inactive. ACAD10 [SID160750484] scored G2 robust z-score 1.04; G2 cells, % of GMNN control 10.3; inactive. Against ACAD10 [SID160750485], the values are G2 robust z-score -0.696; G2 cells, % of GMNN control -1.93; inactive. ACAD10 [SID160750486] showed G2 robust z-score -0.485; G2 cells, % of GMNN control -0.444; inactive.

4 entries from above, arranged by “G2 robust z-score”, highest first.
OR4S1 [SID160762410] → G2 robust z-score = 3.05; G2 cells, % of GMNN control = 24.5; call = inactive
OR4S1 [SID160762411] → G2 robust z-score = 0.139; G2 cells, % of GMNN control = 3.95; call = inactive
DRC2 [SID160753362] → G2 robust z-score = -0.323; G2 cells, % of GMNN control = 0.693; call = inactive
DRC2 [SID160753361] → G2 robust z-score = -0.488; G2 cells, % of GMNN control = -0.468; call = inactive

The listing continues.
CCL18 [SID160716468] gave G2 robust z-score 0.995; G2 cells, % of GMNN control 9.96; inactive. With knock-down of CCL18 [SID160716469], the record shows G2 robust z-score 2.2; G2 cells, % of GMNN control 18.4; inactive. CCL18 [SID160716470] showed G2 robust z-score -0.155; G2 cells, % of GMNN control 1.88; inactive. After knock-down of PROX2 [SID160762965] the results were G2 robust z-score 7.42; G2 cells, % of GMNN control 55.1; active. Against PROX2 [SID160762966] the deposit lists G2 robust z-score 1.26; G2 cells, % of GMNN control 11.9; inactive. After knock-down of PROX2 [SID160762967] the results were G2 robust z-score 1.04; G2 cells, % of GMNN control 10.3; inactive.

BRCA2 [SID160728848] showed G2 robust z-score 0.221; G2 cells, % of GMNN control 4.52; inactive. After knock-down of BRCA2 [SID160728858], the record shows G2 robust z-score 0.869; G2 cells, % of GMNN control 9.08; inactive. With knock-down of BRCA2 [SID160731802] the results were G2 robust z-score 2.38; G2 cells, % of GMNN control 19.7; inactive. For CYP11B2 [SID160751922] the deposit lists G2 robust z-score 0.494; G2 cells, % of GMNN control 6.44; inactive. Depletion of CYP11B2 [SID160751934] gave: G2 robust z-score -1.04; G2 cells, % of GMNN control -4.38; inactive. Silencing of CYP11B2 [SID160751944] came out at: G2 robust z-score -0.194; G2 cells, % of GMNN control 1.61; inactive.

AFAP1L1 [SID160757315] showed G2 robust z-score -0.794; G2 cells, % of GMNN control -2.62; inactive. AFAP1L1 [SID160757316] gave G2 robust z-score 2.07; G2 cells, % of GMNN control 17.5; inactive. With knock-down of AFAP1L1 [SID160757317], the record shows G2 robust z-score -0.662; G2 cells, % of GMNN control -1.69; inactive. After knock-down of ABCB9 [SID160736315], the screen gave G2 robust z-score -1.11; G2 cells, % of GMNN control -4.85; inactive. ABCB9 [SID160736317] scored G2 robust z-score 0.483; G2 cells, % of GMNN control 6.37; inactive. Knock-down of ABCB9 [SID160736318] resulted in: G2 robust z-score -1.49; G2 cells, % of GMNN control -7.54; inactive.
